# Legend:
# Type in all cases: cell-based, human
# HeLa = assay: MTT cytotoxicity assay, HeLa; settings: read-out: IC50 HeLa, cells treated for 24 h
# A549 = assay: MTT cytotoxicity assay, A549; settings: read-out: IC50 A549, cells treated for 24 h
# Sk-Ov-3 = assay: MTT cytotoxicity assay, Sk-Ov-3; settings: read-out: IC50 Sk-Ov-3, cells treated for 24 h
smiles,measurement,setting,value
N.N.[Cl][Pt][Cl] [Cisplatin],IC50,HeLa,13.6 ± 2.63 µM
same,IC50,A549,21.3 ± 2.74 µM
same,IC50,Sk-Ov-3,14.4 ± 0.43 µM

# — PMC9049676 (RSC Advances, 2020)
